Some of the results follow.
Columns and labels:
Assay in all cases: log2 fold change, soluble protein after heating vs DMSO (PISA); higher = thermal stabilisation; K562 lysate, 10 uM; active = over 0.2 and 3.5 SD of the protein, either way, in both replicates (recomputed)
vemurafenib = compound: CCCS(=O)(=O)Nc1ccc(F)c(C(=O)c2c[nH]c3ncc(-c4ccc(Cl)cc4)cc23)c1F [vemurafenib]
Outline: (§1)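 K562 pellets were dounce-homogenised in PBS pH 7.4 with 1 mM MgCl2, and the crude extract at 1 mg/mL protein was treated with 10 μM compound for 30 min. Aliquots were heated for 3 min across 48°C-58°C, pooled, and brought to 0.5% NP-40 at 4°C; soluble protein was the supernatant after 21,000xg for 90 min. Soluble protein was quantified by TMTpro 16plex LC-MS/MS with channel sums equalised, and reported as log2 fold change in thermal stability against DMSO controls, with values from duplicates.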

The chains behind the UniProt entries cited, without tags or fusion partners. Where a name states a change or a piece, a line headed by the entry shows the natural chain unless it says otherwise.
UniProt Q16531, whole entry, looked up: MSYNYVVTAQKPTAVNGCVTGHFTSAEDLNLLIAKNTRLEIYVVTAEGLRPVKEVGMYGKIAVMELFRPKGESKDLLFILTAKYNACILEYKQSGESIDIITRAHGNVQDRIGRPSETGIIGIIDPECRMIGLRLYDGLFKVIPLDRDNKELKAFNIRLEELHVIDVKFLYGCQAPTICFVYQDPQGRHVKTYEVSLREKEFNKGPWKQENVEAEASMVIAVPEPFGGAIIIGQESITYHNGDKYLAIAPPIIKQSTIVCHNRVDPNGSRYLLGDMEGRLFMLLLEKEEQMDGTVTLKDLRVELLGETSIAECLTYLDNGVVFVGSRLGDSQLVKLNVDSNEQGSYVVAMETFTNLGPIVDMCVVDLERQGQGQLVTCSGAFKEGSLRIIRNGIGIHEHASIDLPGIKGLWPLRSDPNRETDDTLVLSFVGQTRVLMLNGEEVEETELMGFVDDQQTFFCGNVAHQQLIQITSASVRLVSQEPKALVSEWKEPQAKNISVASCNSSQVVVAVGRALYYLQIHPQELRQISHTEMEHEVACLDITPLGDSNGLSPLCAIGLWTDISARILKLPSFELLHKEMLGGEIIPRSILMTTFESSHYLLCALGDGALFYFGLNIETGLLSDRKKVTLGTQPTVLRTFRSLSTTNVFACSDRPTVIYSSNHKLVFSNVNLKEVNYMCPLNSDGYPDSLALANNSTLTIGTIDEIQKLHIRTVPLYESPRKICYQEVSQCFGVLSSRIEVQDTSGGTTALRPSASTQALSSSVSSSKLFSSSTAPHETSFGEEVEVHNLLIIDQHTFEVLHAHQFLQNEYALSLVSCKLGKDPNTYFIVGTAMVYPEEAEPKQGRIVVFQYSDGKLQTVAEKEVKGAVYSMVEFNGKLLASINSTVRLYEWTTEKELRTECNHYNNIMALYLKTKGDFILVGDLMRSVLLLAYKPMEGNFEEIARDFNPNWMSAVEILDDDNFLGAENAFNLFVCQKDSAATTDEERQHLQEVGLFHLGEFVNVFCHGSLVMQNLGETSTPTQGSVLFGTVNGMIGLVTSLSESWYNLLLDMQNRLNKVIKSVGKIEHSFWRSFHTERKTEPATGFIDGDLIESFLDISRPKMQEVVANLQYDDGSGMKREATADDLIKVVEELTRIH
UniProt Q5QP82: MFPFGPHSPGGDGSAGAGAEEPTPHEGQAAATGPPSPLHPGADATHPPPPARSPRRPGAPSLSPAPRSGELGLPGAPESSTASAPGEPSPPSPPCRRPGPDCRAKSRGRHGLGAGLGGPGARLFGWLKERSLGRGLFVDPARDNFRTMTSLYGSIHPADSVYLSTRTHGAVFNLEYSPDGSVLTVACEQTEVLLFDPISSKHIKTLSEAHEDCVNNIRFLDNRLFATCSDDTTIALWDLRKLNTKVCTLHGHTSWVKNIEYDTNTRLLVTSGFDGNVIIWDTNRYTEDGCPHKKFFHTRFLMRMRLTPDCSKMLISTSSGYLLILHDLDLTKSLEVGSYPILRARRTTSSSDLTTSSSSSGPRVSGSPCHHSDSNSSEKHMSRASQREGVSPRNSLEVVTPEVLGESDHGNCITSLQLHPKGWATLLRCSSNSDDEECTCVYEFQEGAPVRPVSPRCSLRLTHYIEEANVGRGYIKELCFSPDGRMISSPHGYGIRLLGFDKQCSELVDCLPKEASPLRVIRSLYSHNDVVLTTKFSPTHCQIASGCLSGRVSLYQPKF
UniProt Q9UJU6: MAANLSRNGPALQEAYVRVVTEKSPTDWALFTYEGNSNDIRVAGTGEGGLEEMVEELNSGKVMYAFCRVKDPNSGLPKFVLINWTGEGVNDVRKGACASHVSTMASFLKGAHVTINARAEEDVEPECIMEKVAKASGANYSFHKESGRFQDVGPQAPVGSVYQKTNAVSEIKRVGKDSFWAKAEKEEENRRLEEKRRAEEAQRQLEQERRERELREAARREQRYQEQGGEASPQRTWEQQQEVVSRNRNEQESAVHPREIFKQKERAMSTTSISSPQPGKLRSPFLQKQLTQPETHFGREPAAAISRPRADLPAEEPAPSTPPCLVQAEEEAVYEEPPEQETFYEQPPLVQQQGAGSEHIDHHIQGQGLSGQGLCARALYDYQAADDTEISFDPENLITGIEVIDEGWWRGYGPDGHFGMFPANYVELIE
UniProt O94760: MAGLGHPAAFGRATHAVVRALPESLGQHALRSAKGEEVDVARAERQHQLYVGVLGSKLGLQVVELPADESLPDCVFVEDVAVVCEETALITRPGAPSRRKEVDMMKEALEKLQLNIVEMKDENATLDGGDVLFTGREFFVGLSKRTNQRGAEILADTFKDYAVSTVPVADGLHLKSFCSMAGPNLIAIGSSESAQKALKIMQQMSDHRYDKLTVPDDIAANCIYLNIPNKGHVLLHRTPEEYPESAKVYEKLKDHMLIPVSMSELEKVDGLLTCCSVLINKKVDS
UniProt Q9Y4D1, whole entry, looked up: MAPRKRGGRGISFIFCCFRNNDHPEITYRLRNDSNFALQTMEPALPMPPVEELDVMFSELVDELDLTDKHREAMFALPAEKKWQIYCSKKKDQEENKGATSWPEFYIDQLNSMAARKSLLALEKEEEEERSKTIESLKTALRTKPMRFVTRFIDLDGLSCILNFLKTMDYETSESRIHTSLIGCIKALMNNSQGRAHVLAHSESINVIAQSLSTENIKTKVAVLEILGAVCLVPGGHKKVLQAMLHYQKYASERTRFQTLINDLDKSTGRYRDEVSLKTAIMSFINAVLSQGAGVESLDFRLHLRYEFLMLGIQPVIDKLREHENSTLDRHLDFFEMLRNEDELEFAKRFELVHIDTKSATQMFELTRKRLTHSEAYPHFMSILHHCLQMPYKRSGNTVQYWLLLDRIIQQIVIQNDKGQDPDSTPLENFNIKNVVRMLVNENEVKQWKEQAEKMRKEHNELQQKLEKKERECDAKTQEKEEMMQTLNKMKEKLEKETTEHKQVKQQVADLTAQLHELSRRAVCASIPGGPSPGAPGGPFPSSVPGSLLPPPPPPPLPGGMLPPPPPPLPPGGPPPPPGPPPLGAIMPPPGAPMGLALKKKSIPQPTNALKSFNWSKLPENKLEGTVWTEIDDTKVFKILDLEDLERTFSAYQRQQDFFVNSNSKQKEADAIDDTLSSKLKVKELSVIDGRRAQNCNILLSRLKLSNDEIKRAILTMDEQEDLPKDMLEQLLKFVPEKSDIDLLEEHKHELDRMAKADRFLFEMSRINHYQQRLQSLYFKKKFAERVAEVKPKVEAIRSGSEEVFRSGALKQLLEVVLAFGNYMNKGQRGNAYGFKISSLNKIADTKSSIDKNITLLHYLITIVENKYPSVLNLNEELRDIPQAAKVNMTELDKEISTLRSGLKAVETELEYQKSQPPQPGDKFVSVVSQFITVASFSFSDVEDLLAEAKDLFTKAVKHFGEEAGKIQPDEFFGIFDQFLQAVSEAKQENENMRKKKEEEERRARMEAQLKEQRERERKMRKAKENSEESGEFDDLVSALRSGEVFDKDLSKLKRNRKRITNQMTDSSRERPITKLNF
UniProt Q9H1C7: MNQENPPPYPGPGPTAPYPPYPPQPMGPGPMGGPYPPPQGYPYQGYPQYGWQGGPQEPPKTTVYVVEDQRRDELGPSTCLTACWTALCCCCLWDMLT
UniProt P53355: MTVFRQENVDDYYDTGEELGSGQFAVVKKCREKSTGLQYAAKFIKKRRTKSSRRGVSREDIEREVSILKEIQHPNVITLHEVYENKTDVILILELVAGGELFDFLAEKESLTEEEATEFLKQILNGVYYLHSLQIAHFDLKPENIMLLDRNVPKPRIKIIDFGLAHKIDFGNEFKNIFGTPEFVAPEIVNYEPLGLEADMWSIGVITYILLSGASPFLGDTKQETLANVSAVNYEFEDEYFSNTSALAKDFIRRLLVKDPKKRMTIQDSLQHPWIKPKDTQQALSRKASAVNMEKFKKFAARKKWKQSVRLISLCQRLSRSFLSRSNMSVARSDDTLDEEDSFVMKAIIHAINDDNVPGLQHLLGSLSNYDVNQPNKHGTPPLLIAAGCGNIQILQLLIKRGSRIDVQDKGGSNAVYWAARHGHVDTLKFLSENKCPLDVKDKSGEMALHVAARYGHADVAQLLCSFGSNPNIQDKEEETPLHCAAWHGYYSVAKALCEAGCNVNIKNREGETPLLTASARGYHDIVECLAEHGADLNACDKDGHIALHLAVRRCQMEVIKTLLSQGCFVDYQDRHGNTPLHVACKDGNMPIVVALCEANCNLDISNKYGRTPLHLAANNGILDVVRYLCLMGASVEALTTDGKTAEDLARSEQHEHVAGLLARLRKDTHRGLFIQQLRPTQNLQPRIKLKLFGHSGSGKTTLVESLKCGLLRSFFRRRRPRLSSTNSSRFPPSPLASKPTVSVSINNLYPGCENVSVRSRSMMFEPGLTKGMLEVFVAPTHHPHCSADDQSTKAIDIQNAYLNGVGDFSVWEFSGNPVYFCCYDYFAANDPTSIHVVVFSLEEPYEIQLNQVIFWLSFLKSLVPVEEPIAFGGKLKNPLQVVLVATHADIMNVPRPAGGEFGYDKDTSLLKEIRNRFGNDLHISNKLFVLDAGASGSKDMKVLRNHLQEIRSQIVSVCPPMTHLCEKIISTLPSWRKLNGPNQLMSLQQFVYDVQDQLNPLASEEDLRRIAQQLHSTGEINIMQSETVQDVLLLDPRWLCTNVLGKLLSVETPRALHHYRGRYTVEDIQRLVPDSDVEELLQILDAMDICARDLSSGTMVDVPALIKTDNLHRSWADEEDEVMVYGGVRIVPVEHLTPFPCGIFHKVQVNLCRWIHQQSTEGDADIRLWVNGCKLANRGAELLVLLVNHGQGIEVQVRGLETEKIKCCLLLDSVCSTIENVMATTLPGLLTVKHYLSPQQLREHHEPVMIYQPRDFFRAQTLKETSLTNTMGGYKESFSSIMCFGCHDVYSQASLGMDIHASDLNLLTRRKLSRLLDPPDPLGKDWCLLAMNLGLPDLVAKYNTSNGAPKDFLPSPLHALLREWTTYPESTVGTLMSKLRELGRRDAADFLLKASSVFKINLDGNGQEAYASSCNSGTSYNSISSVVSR
UniProt Q9H4E7, whole entry, looked up: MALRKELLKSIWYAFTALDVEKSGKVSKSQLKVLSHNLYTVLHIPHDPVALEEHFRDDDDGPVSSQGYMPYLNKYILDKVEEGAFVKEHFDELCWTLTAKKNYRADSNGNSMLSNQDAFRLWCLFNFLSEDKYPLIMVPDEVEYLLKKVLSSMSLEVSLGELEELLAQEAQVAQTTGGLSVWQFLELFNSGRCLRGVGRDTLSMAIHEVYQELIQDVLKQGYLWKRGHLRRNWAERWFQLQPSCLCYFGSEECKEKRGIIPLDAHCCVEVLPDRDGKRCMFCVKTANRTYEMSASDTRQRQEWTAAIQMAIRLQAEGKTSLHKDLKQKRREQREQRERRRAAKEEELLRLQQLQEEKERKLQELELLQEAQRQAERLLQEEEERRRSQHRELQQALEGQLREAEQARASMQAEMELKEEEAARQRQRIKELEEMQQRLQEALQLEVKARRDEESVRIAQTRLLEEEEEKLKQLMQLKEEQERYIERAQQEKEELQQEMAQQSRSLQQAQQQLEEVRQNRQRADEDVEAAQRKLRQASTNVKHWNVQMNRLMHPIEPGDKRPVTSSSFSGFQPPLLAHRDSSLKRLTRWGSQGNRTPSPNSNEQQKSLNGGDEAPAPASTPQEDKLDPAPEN
UniProt Q9NXF7, whole entry, looked up: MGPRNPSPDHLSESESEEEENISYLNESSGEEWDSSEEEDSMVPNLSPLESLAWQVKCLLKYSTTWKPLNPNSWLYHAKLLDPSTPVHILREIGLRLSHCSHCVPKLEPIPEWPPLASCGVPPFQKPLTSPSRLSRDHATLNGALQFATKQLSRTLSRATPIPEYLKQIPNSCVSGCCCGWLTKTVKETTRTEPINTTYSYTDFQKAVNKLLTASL
UniProt P30046: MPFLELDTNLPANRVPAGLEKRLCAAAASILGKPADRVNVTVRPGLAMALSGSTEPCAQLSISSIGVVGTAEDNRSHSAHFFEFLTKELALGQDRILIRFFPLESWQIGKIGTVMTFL
UniProt P07108: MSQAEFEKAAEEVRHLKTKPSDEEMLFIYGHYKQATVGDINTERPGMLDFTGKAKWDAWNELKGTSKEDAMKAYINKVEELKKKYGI
UniProt O43293: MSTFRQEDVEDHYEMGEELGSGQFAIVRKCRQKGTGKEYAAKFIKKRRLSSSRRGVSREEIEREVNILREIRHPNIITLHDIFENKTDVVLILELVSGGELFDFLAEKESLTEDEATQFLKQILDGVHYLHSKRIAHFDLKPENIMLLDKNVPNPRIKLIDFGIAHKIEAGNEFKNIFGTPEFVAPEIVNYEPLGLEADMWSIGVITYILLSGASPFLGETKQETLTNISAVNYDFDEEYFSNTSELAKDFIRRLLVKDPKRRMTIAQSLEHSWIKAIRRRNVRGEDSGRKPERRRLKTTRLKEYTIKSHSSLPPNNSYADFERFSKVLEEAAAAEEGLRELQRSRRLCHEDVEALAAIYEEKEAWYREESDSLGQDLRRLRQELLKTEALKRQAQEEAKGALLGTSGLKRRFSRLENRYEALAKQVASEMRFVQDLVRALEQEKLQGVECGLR

[1] = compound: CCCS(=O)(=O)Nc1ccc(F)c(C(=O)c2c[nH]c3ncc(Cl)cc23)c1F
Outline: as §1

barasertib = compound: CCN(CCCOc1ccc2c(Nc3cc(CC(=O)Nc4cccc(F)c4)[nH]n3)ncnc2c1)CCOP(=O)(O)O [barasertib]
Outline: as §1

[2] = compound: CC[C@@H]1C(=O)N(C)c2cnc(Nc3ccc(C(=O)NC4CCN(C)CC4)cc3OC)nc2N1C1CCCC1
Outline: as §1

volasertib = compound: CC[C@@H]1C(=O)N(C)c2cnc(Nc3ccc(C(=O)N[C@H]4CC[C@H](N5CCN(CC6CC6)CC5)CC4)cc3OC)nc2N1C(C)C [volasertib]
Outline: as §1

[3] = compound: CCn1c(C(=O)N(C2CC2)C2CC2)cc2c3c(ncn3C)c(Nc3cc(C)n(C)n3)nc21
Outline: as §1

[4] = compound: CCn1cc(-c2ccnc3[nH]c(-c4cccc(CN(C)C)c4)cc23)c(-c2ccc(NC(=O)N(C)C)cc2)n1
Outline: as §1

[5] = compound: CN1CCC(CNc2ccc3ncc(-c4cccc(OC(F)(F)F)c4)n3n2)CC1
Outline: as §1

saracatinib = compound: CN1CCN(CCOc2cc(OC3CCOCC3)c3c(Nc4c(Cl)ccc5c4OCO5)ncnc3c2)CC1 [saracatinib]
Outline: as §1

sotrastaurin = compound: CN1CCN(c2nc(C3=C(c4c[nH]c5ccccc45)C(=O)NC3=O)c3ccccc3n2)CC1 [sotrastaurin]
Outline: as §1

Measured: log2 fold change

DDB1 (UniProt Q16531)
inactive: vemurafenib -0.002 | [1] 0.01 | barasertib -0.001 | [2] -0.025 | volasertib 0.023 | [3] -0.007 | [4] 0 | [5] 0.044 | saracatinib -0.019 | sotrastaurin 0.019

DDI2 isoform 3 (UniProt Q5TDH0)
inactive: vemurafenib 0.015 | [1] 0.01 | barasertib -0.029 | [2] 0.016 | volasertib -0.003 | [3] -0.055 | [4] -0.015 | [5] 0.029 | saracatinib 0.005 | sotrastaurin -0.018

DDHD1 (UniProt Q8NEL9)
inactive: vemurafenib 0.071 | [1] 0.019 | barasertib -0.005 | [2] 0.049 | volasertib 0.056 | [3] 0.061 | [4] -0.032 | [5] 0.039 | saracatinib 0.077 | sotrastaurin 0.064

DCTN1 (UniProt Q14203)
inactive: vemurafenib -0.025 | [1] 0.008 | barasertib 0.021 | [2] -0.021 | volasertib -0.048 | [3] 0.002 | [4] 0.034 | [5] -0.034 | saracatinib 0.029 | sotrastaurin -0.003

DCAF10 (UniProt Q5QP82)
inactive: vemurafenib -0.022 | barasertib -0.01 | [2] 0.023 | [3] -0.054 | [4] -0.159 | [5] 0.04 | saracatinib -0.127 | sotrastaurin -0.155

DBNL isoform 3 (UniProt Q9UJU6)
inactive: vemurafenib 0.011 | [1] 0.004 | barasertib -0.025 | [2] 0.029 | volasertib 0.02 | [3] -0.023 | [4] -0.052 | [5] 0.02 | saracatinib 0.012 | sotrastaurin -0.02

DDAH1 (UniProt O94760)
inactive: vemurafenib 0.054 | [1] 0.071 | [2] 0.04 | volasertib 0.068 | [3] 0.061 | [4] -0.068 | [5] -0.051 | sotrastaurin -0.022
active: saracatinib -0.308

CYP51A1 (UniProt Q16850)
inactive: vemurafenib -0.014 | [1] -0.007 | barasertib -0.011 | [2] 0.053 | volasertib 0.01 | [3] -0.02 | [4] -0.103 | [5] -0.066 | saracatinib -0.043 | sotrastaurin 0.001

DAAM1 (UniProt Q9Y4D1)
inactive: vemurafenib -0.05 | [1] -0.278 | barasertib 0.066 | volasertib -0.433 | [4] -0.054 | [5] -0.05 | saracatinib -0.11 | sotrastaurin 0.105

DCTN1 isoform 4 (UniProt Q14203)
inactive: vemurafenib 0.07 | [1] 0.089 | [2] 0.139 | volasertib -0.019 | [3] -0.28 | [4] 0.34 | [5] 0.121 | saracatinib 0.123 | sotrastaurin -0.027

DCAF12 (UniProt Q5T6F0)
inactive: vemurafenib 0.141 | barasertib 0.003 | [2] 0.105 | [3] -0.131 | saracatinib 0.009 | sotrastaurin -0.09

DENND1A isoform 6 (UniProt Q8TEH3)
inactive: vemurafenib -0.208 | [1] 0.018 | barasertib -0.311 | [2] 0.07 | volasertib 0.01 | [3] 0.058 | saracatinib 0.116 | sotrastaurin -0.026

DDX27 (UniProt Q96GQ7)
inactive: vemurafenib 0.019 | [1] 0.05 | barasertib 0.018 | [2] -0.017 | volasertib -0.003 | [3] -0.025 | [4] 0.036 | [5] -0.014 | saracatinib 0.038 | sotrastaurin -0.009

CYP2R1 (UniProt Q6VVX0)
inactive: vemurafenib -0.025 | [1] 0.012 | [2] -0.106 | volasertib 0.061 | [3] 0.063 | saracatinib 0.01

CYP2S1 isoform 2 (UniProt Q96SQ9)
inactive: vemurafenib 0.062 | [1] 0.136 | [2] 0.119 | volasertib 0.038 | [3] 0.063 | saracatinib 0.017 | sotrastaurin 0.081

DBT (UniProt P11182)
inactive: vemurafenib -0.042 | [1] 0.018 | barasertib 0.014 | [2] -0.035 | volasertib -0.013 | [3] -0.009 | [4] -0.066 | [5] 0.043 | saracatinib -0.013 | sotrastaurin 0.008

CYSTM1 (UniProt Q9H1C7)
inactive: vemurafenib -0.254 | [1] -0.001 | barasertib -0.098 | [2] -0.142 | volasertib -0.015 | [3] -0.07 | [4] -0.053 | [5] -0.008 | saracatinib -0.01 | sotrastaurin 0.045

DAPK1 isoform 3 (UniProt P53355)
inactive: vemurafenib 0.047 | [1] -0.203 | volasertib -0.138 | [3] 0.022 | [4] 0.138 | [5] -0.04 | saracatinib 0.022 | sotrastaurin -0.039

DDX3X (UniProt O00571)
inactive: vemurafenib 0.052 | [1] 0.014 | barasertib -0.022 | [2] -0.074 | volasertib -0.021 | [3] 0.027 | [4] -0.122 | [5] -0.027 | saracatinib 0.027 | sotrastaurin -0.002

DBR1 (UniProt Q9UK59)
inactive: vemurafenib 0.083 | [1] 0.032 | barasertib -0.023 | [2] -0.003 | volasertib -0.009 | [3] -0.025 | [4] -0.164 | [5] 0.089 | saracatinib 0 | sotrastaurin -0.019

DDX1 (UniProt Q92499)
inactive: vemurafenib -0.011 | [1] 0.019 | barasertib -0.015 | [2] -0.018 | volasertib -0.042 | [3] 0.01 | [4] -0.048 | [5] -0.011 | saracatinib -0.01 | sotrastaurin -0.032

DEF6 (UniProt Q9H4E7)
inactive: vemurafenib -0.004 | [1] -0.005 | barasertib -0.05 | [2] -0.101 | volasertib -0.05 | [3] -0.033 | [4] -0.071 | [5] 0.049 | saracatinib 0.07 | sotrastaurin 0.004

DCAF16 (UniProt Q9NXF7)
inactive: vemurafenib 0.04 | [1] 0.034 | barasertib 0.028 | [2] 0.046 | volasertib -0.006 | [3] 0.003 | [4] 0.195 | [5] -0.13 | saracatinib -0.023 | sotrastaurin -0.006

DENND1B (UniProt Q6P3S1)
inactive: vemurafenib 0.128 | [1] -0.036 | barasertib 0.01 | volasertib -0.05 | [3] -0.134 | [4] 0.022 | [5] -0.024 | saracatinib -0.018 | sotrastaurin 0.04

DBF4 (UniProt Q9UBU7)
inactive: vemurafenib 0.001 | barasertib 0.054 | [2] -0.015 | [3] 0.001 | [4] -0.003 | [5] -0.245 | saracatinib 0.001 | sotrastaurin -0.004

DDT (UniProt P30046)
inactive: vemurafenib -0.009 | [1] -0.038 | barasertib 0.166 | [2] -0.002 | volasertib 0.05 | [3] 0.045 | [4] -0.136 | [5] 0.064 | saracatinib -0.012 | sotrastaurin -0.063

Reprinted from the results shown (2 entries):
DBF4 (UniProt Q9UBU7)
inactive: vemurafenib 0.001 | barasertib 0.054 | [2] -0.015 | [3] 0.001 | [4] -0.003 | [5] -0.245 | saracatinib 0.001 | sotrastaurin -0.004

DDT (UniProt P30046)
inactive: vemurafenib -0.009 | [1] -0.038 | barasertib 0.166 | [2] -0.002 | volasertib 0.05 | [3] 0.045 | [4] -0.136 | [5] 0.064 | saracatinib -0.012 | sotrastaurin -0.063

Next results.

DBI isoform 5 (UniProt P07108)
inactive: vemurafenib -0.038 | [1] -0.015 | barasertib 0.057 | [2] 0.06 | volasertib 0.113 | [3] -0.02 | [4] -0.001 | [5] -0.162 | saracatinib 0.048 | sotrastaurin -0.018

DCTN2 isoform 3 (UniProt Q13561)
inactive: vemurafenib -0.005 | [1] -0.007 | barasertib 0.076 | [2] -0.001 | volasertib 0.034 | [3] -0.006 | [4] -0.129 | [5] 0.049 | saracatinib -0.025 | sotrastaurin -0.003

DAPK2 isoform 2 (UniProt Q9UIK4)
inactive: vemurafenib -0.363 | [1] -0.034 | volasertib 0.025 | [3] -0.279

DAPK3 (UniProt O43293)
inactive: vemurafenib -0.167 | [1] -0.068 | volasertib 0.021 | [4] -0.009 | [5] 0.337

DALRD3 (UniProt Q5D0E6)
inactive: vemurafenib -0.033 | [1] -0.025 | [2] -0.095 | volasertib -0.041 | [4] 0.003 | [5] 0.144

DCAF12L2 (UniProt Q5VW00)
inactive: vemurafenib 0.031 | barasertib 0.476 | [2] -0.093
